This is an account of results in doi:10.1101/2021.08.02.454725.

By UniProt entry, the sequences of proteins in these tests, tags left out.
UniProt P61829: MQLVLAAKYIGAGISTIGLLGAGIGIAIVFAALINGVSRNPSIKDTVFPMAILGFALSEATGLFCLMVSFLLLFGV

No constants are given. Whether binding was seen depends on the method and setting. Some entries that bind do so weakly or less than the wild type.

This assay concerns the target Atp9 (yeast (endogenous in isolated mitochondria)) (UniProt P61829). Briefly: SDS-PAGE and autoradiography of an SDS-resistant oligomer.

Consider Atp9 (from UniProt P61829 1-76), for which the binding result is “binds”.
